The values that follow come from article PMC5996148.

Some of the results follow.

What all share (test): protein microarray (ProtoArray v5.0), streptavidin-Alexa Fluor 647
What all share (conditions): 3'-biotin; 20 mM Tris (pH 7.5), 5 mM MgCl2, 100 mM KCl, 0.1% Tween-20, A/T-rich and random oligonucleotide blockers; temperature not stated; high values mean tight binding

Assay [1] deals with Protein TEX261 (human).
Assay [2] has as its system Protein reprimo (human).
In assay [3] the test system is Protein shisa-4 (human).
The test system of assay [4] is Protein transport protein Sec61 subunit alpha isoform 1 (human).
Assay [5] concerns Protein transport protein Sec61 subunit beta (human).
In assay [6] the test system is Protein tyrosine phosphatase receptor type C-associated protein (human).
Assay [7] has as its system Putative ATP-dependent Clp protease proteolytic subunit, mitochondrial (human).
Assay [8] has as its system Putative adenylate kinase 7 (human).
In assay [9] the test system is Putative elongation factor 1-delta-like protein (human).
The subject of assay [10] is Putative protein phosphatase inhibitor 2-like protein 3 (human).

In the case of “GGGGACAGGGGTATGGGGAGGGG [G4-3 biotinylated (CtG)]”, the binding signal in assay [1] was -0.322 z-score; in [2], -0.303 z-score; in assay [3], -0.324 z-score; in assay [4], -0.312 z-score; in assay [5] it was 4.18 z-score; in assay [6], -0.334 z-score. Further, the binding signal in [7] is -0.334 z-score; in assay [8] it was -0.341 z-score; in assay [9], -0.327 z-score; in assay [10] it was -0.338 z-score.
